In publication PMC8503633:
Results are given in words; binding and its absence hold for the method and conditions named.

By UniProt entry, the sequences of proteins in these tests, tags left out. Where a name states a change or a piece, a line headed by the entry shows the natural chain unless it says otherwise.
UniProt Q96SZ5: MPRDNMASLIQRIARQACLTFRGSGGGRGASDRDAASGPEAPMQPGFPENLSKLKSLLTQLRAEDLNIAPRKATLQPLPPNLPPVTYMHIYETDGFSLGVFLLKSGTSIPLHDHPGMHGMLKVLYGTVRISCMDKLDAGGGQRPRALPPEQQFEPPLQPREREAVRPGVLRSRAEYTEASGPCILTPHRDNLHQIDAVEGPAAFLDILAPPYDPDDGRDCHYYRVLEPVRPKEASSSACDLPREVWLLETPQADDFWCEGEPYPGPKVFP

Biological target: human cysteamine dioxygenase (ADO) C18S/C239S double-site variant (human) (UniProt Q96SZ5)
Assay: SEC; gel filtration on a Superdex 200 column, 50 mM HEPES, 50 mM NaCl (pH 7.5); both purified

Substance: human cysteamine dioxygenase (ADO) C18S/C239S double-site variant (from UniProt Q96SZ5 1-270) (enzyme)
- binding: no binding
